At least one structure is not confirmed: it was looked up by name or label, or the drawing left a doubt.
Tests used:
[1] = test system: collagen antibody induced arthritis; conditions: i.v. from day 4, 4 treatments over 10 days
[2] = test system: LPS mediated TNFα stimulation of rat macrophages and spleen cells; assay: Rat in vitro LPS model; assay type: cell-based; conditions: 1 μg/ml, 3 hours before LPS stimulation for 20 hours
[3] = test system: collagen-induced arthritis; conditions: 0.1 and 1 mg/kg groups

Row | Compound | disease severity (mean clinical score as well as cumulative score) compared to vehicle-treated CAIA mice [1] | LPS mediated stimulation of rat macrophages (TNFα secretion) [2] | hind paw swelling compared to the vehicle group [3]
1 | C[C@H]1C[C@@H]2[C@H]([C@@H](O)C[C@@]3(C)[C@H]2CC[C@]3(O)C(=O)CO)[C@@]2(C)C=CC(=O)C=C12 [methyl-prednisolone] | significantly lower | – | –
2 | C[C@@H]1C[C@H]2[C@@H]3CCC4=CC(=O)C=C[C@]4(C)[C@@]3(F)[C@@H](O)C[C@]2(C)[C@@]1(O)C(=O)CO [dexamethasone] | – | prevented | significant differences
